# Results are given in words; binding and its absence hold for the method and conditions named. In cells and extracts the contact can be indirect.
# Protein sequences, listed by entry. Tags and fused reporters are not part of them. Residues count along the entry.
# UniProt P29268, residues 26-348: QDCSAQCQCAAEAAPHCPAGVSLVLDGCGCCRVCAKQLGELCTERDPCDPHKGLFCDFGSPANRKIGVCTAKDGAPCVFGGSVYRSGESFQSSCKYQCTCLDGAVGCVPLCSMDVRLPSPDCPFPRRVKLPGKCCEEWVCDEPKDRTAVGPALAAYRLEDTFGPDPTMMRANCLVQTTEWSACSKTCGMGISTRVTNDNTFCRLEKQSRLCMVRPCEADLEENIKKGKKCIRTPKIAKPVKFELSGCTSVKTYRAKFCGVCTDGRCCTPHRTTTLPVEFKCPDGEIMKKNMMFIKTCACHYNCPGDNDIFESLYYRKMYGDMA
# UniProt P05622, residues 32-1098: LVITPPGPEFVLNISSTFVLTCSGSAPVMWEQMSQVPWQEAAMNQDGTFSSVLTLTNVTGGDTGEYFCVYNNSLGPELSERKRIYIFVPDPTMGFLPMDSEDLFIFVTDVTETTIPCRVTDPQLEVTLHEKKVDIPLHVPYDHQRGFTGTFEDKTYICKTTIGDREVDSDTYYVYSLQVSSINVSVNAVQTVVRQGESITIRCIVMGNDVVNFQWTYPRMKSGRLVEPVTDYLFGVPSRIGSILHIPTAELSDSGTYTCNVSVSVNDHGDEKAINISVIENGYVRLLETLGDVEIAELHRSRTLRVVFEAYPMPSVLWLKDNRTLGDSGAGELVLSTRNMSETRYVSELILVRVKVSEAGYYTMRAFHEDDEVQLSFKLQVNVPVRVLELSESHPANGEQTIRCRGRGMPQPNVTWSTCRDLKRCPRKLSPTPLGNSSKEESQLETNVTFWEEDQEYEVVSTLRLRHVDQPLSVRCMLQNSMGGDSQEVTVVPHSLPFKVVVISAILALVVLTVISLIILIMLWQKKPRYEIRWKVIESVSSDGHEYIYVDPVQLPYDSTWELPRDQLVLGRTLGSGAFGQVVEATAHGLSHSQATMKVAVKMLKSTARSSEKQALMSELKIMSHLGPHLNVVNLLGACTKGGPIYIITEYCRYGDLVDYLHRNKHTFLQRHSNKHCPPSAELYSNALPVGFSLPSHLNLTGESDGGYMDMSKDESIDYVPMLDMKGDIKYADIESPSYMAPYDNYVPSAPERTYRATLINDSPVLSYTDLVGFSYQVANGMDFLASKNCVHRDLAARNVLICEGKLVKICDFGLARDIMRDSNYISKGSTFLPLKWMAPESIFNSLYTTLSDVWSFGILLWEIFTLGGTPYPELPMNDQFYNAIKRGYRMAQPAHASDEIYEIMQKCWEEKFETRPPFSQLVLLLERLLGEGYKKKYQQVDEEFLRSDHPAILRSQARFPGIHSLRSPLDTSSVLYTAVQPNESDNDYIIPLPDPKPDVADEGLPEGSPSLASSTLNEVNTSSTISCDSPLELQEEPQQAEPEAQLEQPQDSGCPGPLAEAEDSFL
# Molecular target: CCN2/Connective Tissue Growth Factor, HA-tagged (CCN2-HA) (UniProt P29268)
# Assay: co-IP; M-CCN2 cells treated with or without PDGF-B; immunoprecipitated with anti-HA antibody; blots probed with anti-PDGFRβ or anti-phospho (Y751) PDGFRβ
substance,measurement,value
PDGF receptor β (PDGFRβ) (from UniProt P05622 32-1098),binding,no binding
